The target in this experiment is T1, proliferating cell nuclear antigen (PCNA) (UniProt P12004 1-261).
T1 construct: Used both for endogenous PCNA of HeLa cell extracts (co-IP, cross-linking) and for the untagged 'PCNA' used as probe in the dot blot; also called endogenous PCNA
In words: dot blot: peptide spots probed with PCNA.

Sequences of proteins named here, by UniProt entry; tags and fusion partners are left off.
UniProt P12004: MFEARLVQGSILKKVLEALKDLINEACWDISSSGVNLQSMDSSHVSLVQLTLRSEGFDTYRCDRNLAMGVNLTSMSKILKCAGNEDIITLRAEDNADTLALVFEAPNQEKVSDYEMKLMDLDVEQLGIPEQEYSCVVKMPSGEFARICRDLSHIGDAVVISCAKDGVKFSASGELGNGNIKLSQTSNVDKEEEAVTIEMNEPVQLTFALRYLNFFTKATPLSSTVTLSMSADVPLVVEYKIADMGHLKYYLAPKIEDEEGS

No constants are given. Whether binding was seen depends on the method and setting. Some binding calls cover weakened binding; strength is not graded here.

Consider RFLVK [pentapeptide RFLVK], for which the binding result is reported as “binds”.

The record behind these values is US20110020437A1 (APIM THERAPEUTICS, published 2011).
